According to publication PMC6642083, “Structural basis of tubulin detyrosination by VASH2/SVBP heterodimer” (Nature Communications, 2019):
No constants are given. Whether binding was seen depends on the method and setting. Some entries that bind do so weakly or less than the wild type. Blank lines part the entries; values can stand above or below the substance they belong to.

The chains behind the UniProt entries cited, without tags or fusion partners. Where a name states a change or a piece, a line headed by the entry shows the natural chain unless it says otherwise.
UniProt Q8C5G2: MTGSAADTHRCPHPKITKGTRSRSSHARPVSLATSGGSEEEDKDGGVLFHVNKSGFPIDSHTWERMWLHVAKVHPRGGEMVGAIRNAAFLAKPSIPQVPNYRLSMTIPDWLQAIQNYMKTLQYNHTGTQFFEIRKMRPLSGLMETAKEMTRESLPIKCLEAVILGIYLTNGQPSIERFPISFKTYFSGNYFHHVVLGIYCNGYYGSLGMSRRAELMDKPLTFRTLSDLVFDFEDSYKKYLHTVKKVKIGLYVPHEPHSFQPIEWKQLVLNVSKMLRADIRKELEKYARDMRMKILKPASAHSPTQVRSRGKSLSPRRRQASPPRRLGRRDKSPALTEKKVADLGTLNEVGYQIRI

How the values were obtained:
[1] = biological target: T1, SVBP_(1–66) (Mus musculus) (UniProt Q99LQ4); experiment: crystal structure; VASH2 1–355/SVBP 1–66 heterodimer, I3C-soaked crystals, SAD, space group C222_1, 2.5 Å; 0.1 M HEPES pH 7.0, 1 M (NH4)2SO4, 1.125 M KCl, 18 °C; both purified
T1 sequence: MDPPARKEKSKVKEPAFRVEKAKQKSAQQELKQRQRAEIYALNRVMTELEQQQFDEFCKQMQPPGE

[2] = biological target: T1, SVBP_(1–66) (Mus musculus); experiment: AUC; sedimentation velocity, 20, 40 and 70 μM VASH2 1–355/SVBP 1–66 complex, 25 mM Tris-HCl pH 8.0, 200 mM NaCl, 18 °C, c(s) model; both purified
[3] = biological target: T1, SVBP_(1–66) (Mus musculus); experiment: crystal structure; tail peptide (1 mM) co-crystallized with VASH2 1–355(C158A)/SVBP 1–66 (5 mg/ml), 2.5 Å; 0.1 M HEPES pH 7.0, 1 M (NH4)2SO4, 1.105 M KCl, 18 °C; both purified
[4] = biological target: VASH2_(1–355)/SVBP_(1–66) heterodimer (Mus musculus) (UniProt Q8C5G2+Q99LQ4); experiment: AUC; sedimentation velocity, 20, 40 and 70 μM VASH2 1–355/SVBP 1–66 complex, 25 mM Tris-HCl pH 8.0, 200 mM NaCl, 18 °C, c(s) model; both purified
[5] = biological target: T1, SVBP_(1–66) (Mus musculus); experiment: crystal structure; VASH2 47–355/SVBP 1–66 heterodimer, molecular replacement, 2.2 Å; 0.1 M BIS-TRIS propane pH 7.0, 2.0 M sodium formate, 18 °C; both purified

- binding [1]: binds
- binding [2]: binds
Substance: VASH2_(1–355) (from UniProt Q8C5G2 1-355) (enzyme)

- binding [3]: binds
Substance: VASH2_(1–355)(C158A) (from UniProt Q8C5G2 1-355) (enzyme)

- binding [4]: no binding (tested: 20–70 μM)
Substance: VASH2_(1–355)/SVBP_(1–66) heterodimer (from UniProt Q8C5G2 1-355; Q99LQ4 1-66) (complex)

- binding [5]: binds
Substance: VASH2_(47–355) (from UniProt Q8C5G2 47-355) (domain or fragment)
